Some of the results follow.
Experiments:
Assay in all cases: log2 fold change, soluble protein after heating vs DMSO (PISA); higher = thermal stabilisation; K562 cells, 10 uM, 30 min; active = over 0.2 and 3.5 SD of the protein, either way, in both replicates (recomputed)
[1] = compound: C#Cc1cccc(Nc2ncnc3cc(OCCOC)c(OCCOC)cc23)c1 [erlotinib]
In short: (§1)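 K562 cells at 2×10^6 cells/mL were exposed to 10 μM compound for 30 min, then aliquots were heated for 3 min across 48°C-58°C, pooled, and extracted in PBS containing 0.5% NP-40 at 4°C. The supernatant after 21,000xg for 90 min was taken as soluble protein and measured by TMTpro 16plex LC-MS/MS with channel sums equalised. Thermal stability is reported relative to control samples, with values from duplicates. Fold changes are given on a log2 scale.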

Sequences of proteins named here, by UniProt entry; tags and fusion partners are left off. A change or cut given only in a name is not applied to a line headed by its entry.
UniProt Q9BWH2: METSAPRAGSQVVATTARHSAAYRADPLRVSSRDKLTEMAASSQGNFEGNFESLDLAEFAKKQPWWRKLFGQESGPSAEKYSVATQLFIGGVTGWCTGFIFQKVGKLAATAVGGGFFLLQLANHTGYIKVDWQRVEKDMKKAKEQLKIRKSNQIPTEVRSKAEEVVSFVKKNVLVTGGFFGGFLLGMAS
UniProt P51114, whole entry, looked up: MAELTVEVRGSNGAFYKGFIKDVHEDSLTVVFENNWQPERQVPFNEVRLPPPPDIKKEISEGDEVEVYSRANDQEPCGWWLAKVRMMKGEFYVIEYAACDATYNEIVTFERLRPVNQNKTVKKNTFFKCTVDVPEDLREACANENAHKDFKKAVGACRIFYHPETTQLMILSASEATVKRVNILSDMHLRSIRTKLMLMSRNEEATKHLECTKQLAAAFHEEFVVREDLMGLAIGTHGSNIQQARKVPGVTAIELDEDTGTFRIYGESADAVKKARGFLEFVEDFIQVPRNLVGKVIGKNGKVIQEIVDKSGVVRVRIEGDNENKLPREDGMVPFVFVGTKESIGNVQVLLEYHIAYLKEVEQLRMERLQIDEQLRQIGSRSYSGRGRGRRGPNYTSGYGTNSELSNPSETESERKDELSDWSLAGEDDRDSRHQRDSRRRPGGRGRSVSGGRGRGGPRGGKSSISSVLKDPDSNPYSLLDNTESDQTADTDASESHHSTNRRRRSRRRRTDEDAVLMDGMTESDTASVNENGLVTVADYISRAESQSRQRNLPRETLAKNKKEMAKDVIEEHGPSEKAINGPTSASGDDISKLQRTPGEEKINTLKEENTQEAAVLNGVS
UniProt P35637: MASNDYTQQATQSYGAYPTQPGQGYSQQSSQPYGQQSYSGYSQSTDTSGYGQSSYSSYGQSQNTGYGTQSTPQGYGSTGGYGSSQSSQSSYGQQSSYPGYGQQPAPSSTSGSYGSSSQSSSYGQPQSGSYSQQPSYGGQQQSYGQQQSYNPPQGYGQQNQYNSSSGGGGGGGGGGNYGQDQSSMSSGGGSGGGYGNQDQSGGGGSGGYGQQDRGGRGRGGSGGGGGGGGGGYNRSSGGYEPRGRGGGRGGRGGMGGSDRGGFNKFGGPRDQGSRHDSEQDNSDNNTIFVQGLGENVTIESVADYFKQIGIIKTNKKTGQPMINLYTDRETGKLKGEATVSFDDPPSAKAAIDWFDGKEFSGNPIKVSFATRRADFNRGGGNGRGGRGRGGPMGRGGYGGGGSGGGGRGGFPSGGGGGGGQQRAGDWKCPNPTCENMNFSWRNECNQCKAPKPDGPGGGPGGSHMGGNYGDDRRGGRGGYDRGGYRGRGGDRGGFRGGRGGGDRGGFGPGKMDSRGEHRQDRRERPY
UniProt Q6NT46: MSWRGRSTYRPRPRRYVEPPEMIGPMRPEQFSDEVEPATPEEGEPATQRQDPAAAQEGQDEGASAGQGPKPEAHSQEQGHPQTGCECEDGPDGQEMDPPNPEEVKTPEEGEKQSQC
UniProt Q9C0B1, whole entry, looked up: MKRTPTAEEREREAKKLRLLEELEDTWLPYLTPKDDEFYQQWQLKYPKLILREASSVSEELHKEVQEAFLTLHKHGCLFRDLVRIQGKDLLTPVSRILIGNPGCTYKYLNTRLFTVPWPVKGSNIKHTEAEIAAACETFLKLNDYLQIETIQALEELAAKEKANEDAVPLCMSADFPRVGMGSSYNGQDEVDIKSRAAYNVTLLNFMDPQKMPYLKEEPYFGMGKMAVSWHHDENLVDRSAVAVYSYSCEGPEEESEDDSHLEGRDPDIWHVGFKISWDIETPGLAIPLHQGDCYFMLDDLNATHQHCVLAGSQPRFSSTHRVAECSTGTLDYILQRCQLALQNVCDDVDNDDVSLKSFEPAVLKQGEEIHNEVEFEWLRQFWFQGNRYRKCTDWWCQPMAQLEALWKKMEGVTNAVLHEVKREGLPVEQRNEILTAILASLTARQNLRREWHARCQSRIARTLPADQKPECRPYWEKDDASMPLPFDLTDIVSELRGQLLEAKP
UniProt P60520, whole entry, looked up: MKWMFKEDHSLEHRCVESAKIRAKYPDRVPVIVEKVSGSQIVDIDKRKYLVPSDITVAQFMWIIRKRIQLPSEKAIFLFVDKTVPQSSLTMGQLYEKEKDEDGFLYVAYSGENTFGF
UniProt P02794, whole entry, looked up: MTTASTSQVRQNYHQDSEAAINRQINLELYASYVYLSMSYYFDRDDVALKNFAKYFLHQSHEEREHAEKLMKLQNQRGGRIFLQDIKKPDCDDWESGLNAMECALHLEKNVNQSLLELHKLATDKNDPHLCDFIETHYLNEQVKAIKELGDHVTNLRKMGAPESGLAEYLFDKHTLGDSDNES
UniProt Q92947: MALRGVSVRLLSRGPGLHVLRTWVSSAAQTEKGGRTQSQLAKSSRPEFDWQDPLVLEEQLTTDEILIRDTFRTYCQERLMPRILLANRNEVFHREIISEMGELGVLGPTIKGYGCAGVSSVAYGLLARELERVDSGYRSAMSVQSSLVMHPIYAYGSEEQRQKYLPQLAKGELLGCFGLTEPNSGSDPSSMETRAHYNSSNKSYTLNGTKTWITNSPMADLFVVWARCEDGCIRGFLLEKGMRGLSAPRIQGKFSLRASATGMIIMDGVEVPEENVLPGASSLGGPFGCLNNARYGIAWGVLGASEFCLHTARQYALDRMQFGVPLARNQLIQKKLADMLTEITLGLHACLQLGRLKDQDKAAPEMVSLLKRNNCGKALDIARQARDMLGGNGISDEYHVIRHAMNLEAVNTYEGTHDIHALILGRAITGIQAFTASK
UniProt Q01415: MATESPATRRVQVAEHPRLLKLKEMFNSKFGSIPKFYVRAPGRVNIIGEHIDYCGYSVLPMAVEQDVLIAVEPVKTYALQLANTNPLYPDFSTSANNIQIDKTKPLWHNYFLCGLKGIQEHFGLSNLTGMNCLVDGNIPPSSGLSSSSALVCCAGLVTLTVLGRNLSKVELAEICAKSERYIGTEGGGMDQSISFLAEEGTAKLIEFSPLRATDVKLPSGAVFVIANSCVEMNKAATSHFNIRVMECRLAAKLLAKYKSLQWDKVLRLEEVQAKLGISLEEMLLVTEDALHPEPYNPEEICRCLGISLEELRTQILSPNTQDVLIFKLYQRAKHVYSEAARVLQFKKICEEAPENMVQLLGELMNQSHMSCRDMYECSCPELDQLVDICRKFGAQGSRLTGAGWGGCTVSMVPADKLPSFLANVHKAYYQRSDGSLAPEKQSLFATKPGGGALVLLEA
UniProt Q92820: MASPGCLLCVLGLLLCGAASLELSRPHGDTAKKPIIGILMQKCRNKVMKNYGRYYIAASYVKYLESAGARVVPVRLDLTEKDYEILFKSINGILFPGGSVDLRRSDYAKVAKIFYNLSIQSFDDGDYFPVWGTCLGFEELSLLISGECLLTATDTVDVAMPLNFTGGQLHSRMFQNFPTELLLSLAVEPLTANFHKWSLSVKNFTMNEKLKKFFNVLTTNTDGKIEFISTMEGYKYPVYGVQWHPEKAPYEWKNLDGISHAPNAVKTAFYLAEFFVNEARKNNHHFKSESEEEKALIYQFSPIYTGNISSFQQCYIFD
UniProt Q8IVV7: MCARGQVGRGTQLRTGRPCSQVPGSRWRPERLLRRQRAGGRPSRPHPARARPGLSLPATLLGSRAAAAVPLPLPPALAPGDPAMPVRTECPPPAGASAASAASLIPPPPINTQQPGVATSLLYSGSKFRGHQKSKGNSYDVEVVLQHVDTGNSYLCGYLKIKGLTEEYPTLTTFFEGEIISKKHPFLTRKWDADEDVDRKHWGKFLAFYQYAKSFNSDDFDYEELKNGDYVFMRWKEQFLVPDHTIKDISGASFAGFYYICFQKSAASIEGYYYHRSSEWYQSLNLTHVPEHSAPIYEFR
UniProt P15976: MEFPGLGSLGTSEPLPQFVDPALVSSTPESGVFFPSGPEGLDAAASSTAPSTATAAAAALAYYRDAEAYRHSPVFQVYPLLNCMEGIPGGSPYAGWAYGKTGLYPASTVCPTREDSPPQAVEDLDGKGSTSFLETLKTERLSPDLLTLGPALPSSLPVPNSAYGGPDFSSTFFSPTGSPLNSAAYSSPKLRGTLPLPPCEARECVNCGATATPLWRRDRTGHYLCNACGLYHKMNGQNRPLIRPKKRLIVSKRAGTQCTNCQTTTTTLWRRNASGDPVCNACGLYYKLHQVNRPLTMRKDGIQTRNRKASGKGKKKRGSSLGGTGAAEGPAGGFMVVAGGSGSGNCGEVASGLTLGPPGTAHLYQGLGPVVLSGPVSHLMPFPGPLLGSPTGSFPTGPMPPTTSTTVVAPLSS
UniProt P34059: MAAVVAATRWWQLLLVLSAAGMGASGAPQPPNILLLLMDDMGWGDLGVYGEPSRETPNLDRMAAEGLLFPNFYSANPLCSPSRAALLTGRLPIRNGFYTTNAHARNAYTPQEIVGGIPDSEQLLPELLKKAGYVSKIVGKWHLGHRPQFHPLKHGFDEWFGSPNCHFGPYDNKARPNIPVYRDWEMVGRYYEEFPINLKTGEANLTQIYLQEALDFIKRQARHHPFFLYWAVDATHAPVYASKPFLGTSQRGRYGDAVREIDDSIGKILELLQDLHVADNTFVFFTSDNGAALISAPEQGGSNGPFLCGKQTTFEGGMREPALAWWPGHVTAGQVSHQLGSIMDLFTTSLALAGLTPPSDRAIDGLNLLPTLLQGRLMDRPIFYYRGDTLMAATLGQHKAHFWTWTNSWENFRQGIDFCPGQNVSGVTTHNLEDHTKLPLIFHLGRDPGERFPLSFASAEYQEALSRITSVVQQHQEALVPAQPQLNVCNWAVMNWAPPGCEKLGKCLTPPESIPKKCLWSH
UniProt Q9NZ52: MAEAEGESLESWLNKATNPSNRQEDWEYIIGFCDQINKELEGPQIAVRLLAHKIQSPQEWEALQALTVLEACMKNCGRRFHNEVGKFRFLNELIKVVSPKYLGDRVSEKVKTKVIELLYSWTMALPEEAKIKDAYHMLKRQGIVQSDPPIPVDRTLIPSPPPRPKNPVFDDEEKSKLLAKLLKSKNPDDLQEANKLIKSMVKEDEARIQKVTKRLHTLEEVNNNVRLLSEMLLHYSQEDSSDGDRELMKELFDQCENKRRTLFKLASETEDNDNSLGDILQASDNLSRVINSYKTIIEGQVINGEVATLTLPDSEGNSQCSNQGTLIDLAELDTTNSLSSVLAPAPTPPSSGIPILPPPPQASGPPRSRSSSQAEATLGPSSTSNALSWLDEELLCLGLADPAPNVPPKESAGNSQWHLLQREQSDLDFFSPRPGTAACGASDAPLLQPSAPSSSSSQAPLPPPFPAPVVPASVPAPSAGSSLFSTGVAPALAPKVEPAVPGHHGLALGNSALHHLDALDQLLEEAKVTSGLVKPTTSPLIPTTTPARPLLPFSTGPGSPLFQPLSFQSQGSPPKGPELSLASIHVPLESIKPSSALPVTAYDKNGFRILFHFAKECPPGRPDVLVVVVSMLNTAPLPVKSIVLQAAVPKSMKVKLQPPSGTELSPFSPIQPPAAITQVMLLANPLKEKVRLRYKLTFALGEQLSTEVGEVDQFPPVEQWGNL
UniProt Q13283, whole entry, looked up: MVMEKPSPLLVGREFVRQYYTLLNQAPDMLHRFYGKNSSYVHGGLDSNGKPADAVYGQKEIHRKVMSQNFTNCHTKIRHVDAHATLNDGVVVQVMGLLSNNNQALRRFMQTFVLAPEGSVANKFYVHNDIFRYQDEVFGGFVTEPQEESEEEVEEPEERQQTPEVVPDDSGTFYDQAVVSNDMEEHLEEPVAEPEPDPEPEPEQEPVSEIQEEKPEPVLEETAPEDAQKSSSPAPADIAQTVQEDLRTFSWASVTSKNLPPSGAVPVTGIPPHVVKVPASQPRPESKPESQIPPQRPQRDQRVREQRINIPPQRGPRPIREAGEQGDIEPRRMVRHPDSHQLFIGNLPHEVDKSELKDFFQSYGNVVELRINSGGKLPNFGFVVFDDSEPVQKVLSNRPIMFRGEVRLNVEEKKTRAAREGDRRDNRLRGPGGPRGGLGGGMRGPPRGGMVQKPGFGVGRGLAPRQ
UniProt P02792: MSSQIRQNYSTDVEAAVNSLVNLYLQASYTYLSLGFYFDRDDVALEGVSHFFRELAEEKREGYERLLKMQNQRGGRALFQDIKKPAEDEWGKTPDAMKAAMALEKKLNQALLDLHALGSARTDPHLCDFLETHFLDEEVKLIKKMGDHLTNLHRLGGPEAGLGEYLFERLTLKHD

[2] = compound: C/C(=N\NC(=O)C1=CC(=CC=C1)S(=O)(=O)N2CCOCC2)/C3=C(C=CC(=C3)Cl)O
In short: as §1

[3] = compound: C1=CC(=C(C=C1Cl)C2=NC3=NC=CN=C3C(=N2)NC4=CC=NC=C4)F
In short: as §1

[4] = compound: C1=CC(=CC=C1C2=NC3=C(N2)C=C(C=C3)C(=O)N)OC4=CC=C(C=C4)Cl
In short: as §1

[5] = compound: C1=CC2=C(C=CC(=C2)/C=C\3/C(=O)NC(=NCC4=CC=CS4)S3)N=C1
In short: as §1

[6] = compound: C1=CC2=NC=CN=C2C=C1/C=C/3\C(=O)NC(=O)S3
In short: as §1

[7] = compound: C1=CC=C(C=C1)C2=NC(=C(N2)C3=CC=NC=C3)C4=CC(=C(C=C4)Cl)O
In short: as §1

[8] = compound: C1=CC=C2C(=C1)C3=NNC4=CC=CC(=C43)C2=O
In short: as §1

[9] = compound: C1CCN(C1)C(=O)NC2=CC=CC(=C2)NC3=NC=C(C(=N3)NCCC4=CN=CN4)Br
In short: as §1

[10] = compound: C1CN(CCC1(CC2=CC=C(C=C2)Cl)N)C3=NC=NC4=C3C=CN4
In short: as §1

Row | Target | log2 fold change [1] | log2 fold change [2] | log2 fold change [3] | log2 fold change [4] | log2 fold change [5] | log2 fold change [6] | log2 fold change [7] | log2 fold change [8] | log2 fold change [9] | log2 fold change [10]
1 | GAPVD1 isoform 6 (UniProt Q14C86) | inactive: 0.008 | inactive: 0.133 | inactive: -0.036 | inactive: -0.043 | inactive: 0.033 | inactive: 0.007 | inactive: 0.002 | inactive: 0.037 | inactive: -0.012 | inactive: -0.041
2 | FNTB (UniProt P49356) | active: 0.488 | inactive: 0.028 | inactive: 0.203 | inactive: 0.028 | inactive: 0.208 | inactive: -0.024 | inactive: 0.091 | inactive: 0.107 | inactive: 0.326 | inactive: 0.065
3 | FUNDC2 (UniProt Q9BWH2) | inactive: -0.024 | inactive: -0.018 | inactive: -0.001 | inactive: -0.02 | inactive: -0.015 | inactive: 0.021 | inactive: -0.015 | inactive: 0.031 | inactive: 0.012 | inactive: 0.047
4 | GET4 (UniProt Q7L5D6) | inactive: -0.02 | inactive: 0.043 | inactive: -0.064 | inactive: 0.024 | inactive: -0.016 | inactive: 0.036 | inactive: 0.006 | inactive: -0.076 | inactive: -0.018 | inactive: -0.089
5 | GANAB isoform 2 (UniProt Q14697) | inactive: -0.045 | inactive: -0.021 | inactive: -0.027 | inactive: -0.01 | inactive: -0.025 | inactive: -0.017 | inactive: -0.01 | inactive: 0.055 | inactive: -0.012 | inactive: -0.035
6 | FXR1 (UniProt P51114) | inactive: 0.024 | inactive: -0.051 | inactive: -0.572 | inactive: -0.068 | inactive: 0.372 | inactive: 0.013 | inactive: -0.112 | inactive: 0.02 | inactive: -0.021 | inactive: -0.06
7 | FUS (UniProt P35637) | inactive: -0.023 | inactive: -0.136 | inactive: -0.165 | inactive: 0.023 | inactive: -0.149 | inactive: 0 | inactive: -0.045 | inactive: -0.009 | inactive: 0.026 | inactive: -0.026
8 | GALC (UniProt P54803) | inactive: -0.023 | inactive: -0.002 | inactive: -0.051 | inactive: 0.041 | inactive: 0.009 | inactive: 0.028 | inactive: -0.017 | inactive: -0.011 | inactive: -0.032 | inactive: 0.08
9 | GBE1 (UniProt Q04446) | inactive: 0.008 | inactive: 0.135 | inactive: 0.037 | inactive: -0.057 | inactive: 0.158 | inactive: -0.019 | inactive: -0.058 | inactive: -0.03 | inactive: -0.061 | inactive: -0.108
10 | GAGE2A (UniProt Q6NT46) | inactive: -0.03 | inactive: -0.173 | inactive: 0.05 | inactive: 0.026 | inactive: 0.051 | inactive: 0.02 | inactive: -0.071 | inactive: -0.065 | inactive: 0.032 | inactive: -0.082
11 | FTO (UniProt Q9C0B1) | inactive: 0.008 | inactive: -0.104 | inactive: 0.052 | inactive: 0.002 | inactive: 0.003 | inactive: 0.106 | inactive: 0.026 | inactive: 0 | inactive: -0.013 | inactive: 0.065
12 | GABARAPL2 (UniProt P60520) | inactive: 0.065 | inactive: 0.013 | inactive: 0.021 | inactive: -0.02 | inactive: 0.072 | inactive: 0.016 | inactive: 0.077 | inactive: 0.008 | inactive: -0.027 | inactive: -0.021
13 | FTH1 (UniProt P02794) | inactive: -0.041 | inactive: -0.043 | inactive: -0.029 | inactive: 0.102 | inactive: -0.036 | inactive: 0.074 | inactive: -0.046 | inactive: 0.007 | inactive: 0.02 | inactive: -0.039
14 | GCDH (UniProt Q92947) | inactive: 0.016 | inactive: -0.078 | inactive: 0.045 | active: -0.273 | inactive: 0.081 | inactive: -0.011 | inactive: 0.082 | inactive: 0.048 | inactive: -0.011 | inactive: 0.039
15 | GALNT12 (UniProt Q8IXK2) | inactive: -0.037 | inactive: 0.03 | inactive: -0.032 | inactive: 0.025 | inactive: -0.005 | inactive: 0.011 | inactive: -0.039 | inactive: -0.023 | inactive: -0.035 | inactive: -0.104
16 | GALK2 (UniProt Q01415) | inactive: -0.008 | inactive: 0.026 | inactive: 0.102 | inactive: 0.01 | inactive: 0.027 | inactive: 0.008 | inactive: 0.021 | inactive: -0.032 | inactive: 0.022 | inactive: 0.039
17 | GGH (UniProt Q92820) | inactive: 0.008 | inactive: 0.017 | inactive: 0.025 | inactive: 0.021 | inactive: -0.031 | inactive: -0.052 | inactive: 0.006 | inactive: -0.018 | inactive: 0.034 | inactive: 0.02
18 | GCN1 (UniProt Q92616) | inactive: 0.019 | inactive: -0.098 | inactive: -0.55 | inactive: -0.01 | inactive: 0.022 | inactive: 0.012 | inactive: -0.059 | inactive: 0.034 | inactive: -0.058 | inactive: -0.234
19 | GFPT1 (UniProt Q06210) | inactive: 0.027 | inactive: 0.056 | inactive: 0.031 | inactive: 0.023 | inactive: 0.012 | inactive: -0.064 | inactive: 0.032 | inactive: 0.003 | inactive: -0.022 | inactive: 0.018
20 | GID4 (UniProt Q8IVV7) | inactive: -0.033 | inactive: 0.017 | inactive: 0.005 | inactive: 0.028 | inactive: -0.046 | inactive: 0.003 | inactive: -0.072 | inactive: -0.018 | inactive: 0.042 | inactive: -0.005
21 | GATA1 (UniProt P15976) | inactive: 0.05 | inactive: 0.024 | inactive: -0.021 | inactive: -0.015 | inactive: 0.032 | inactive: 0.028 | inactive: -0.021 | inactive: -0.083 | inactive: 0.031 | inactive: -0.004
22 | GGA2 (UniProt Q9UJY4) | inactive: 0.036 | inactive: -0.041 | inactive: -0.151 | inactive: 0.003 | inactive: 0.063 | inactive: 0.033 | inactive: -0.053 | inactive: -0.013 | inactive: 0.025 | inactive: -0.016
23 | GFM1 (UniProt Q96RP9) | inactive: 0.05 | inactive: 0.122 | inactive: 0.078 | inactive: -0.035 | inactive: 0.056 | inactive: -0.047 | inactive: 0.022 | inactive: 0.037 | inactive: -0.007 | inactive: 0.019
24 | FPGT (UniProt O14772) | inactive: 0.011 | inactive: 0.02 | inactive: 0.053 | inactive: 0.013 | inactive: 0.043 | inactive: 0.001 | inactive: 0.013 | inactive: 0.005 | inactive: -0.024 | inactive: 0.04
25 | GALNS (UniProt P34059) | inactive: 0.005 | inactive: -0.013 | inactive: -0.018 | inactive: 0 | inactive: 0.049 | inactive: -0.043 | inactive: 0.002 | inactive: -0.019 | inactive: 0.008 | inactive: -0.016
26 | GGA3 (UniProt Q9NZ52) | inactive: 0.045 | inactive: 0.026 | inactive: 0.014 | inactive: 0.093 | inactive: 0.021 | inactive: 0.037 | inactive: -0.002 | inactive: 0.006 | inactive: -0.059 | inactive: -0.04
27 | GALM (UniProt Q96C23) | inactive: 0.066 | inactive: 0.041 | inactive: 0.07 | inactive: 0.026 | inactive: 0.035 | inactive: -0.017 | inactive: -0.018 | inactive: -0.016 | inactive: -0.019 | inactive: 0.044
28 | G3BP1 (UniProt Q13283) | inactive: -0.076 | inactive: -0.061 | inactive: -0.311 | inactive: 0.013 | inactive: -0.042 | inactive: -0.031 | inactive: -0.016 | inactive: -0.034 | inactive: 0.089 | inactive: -0.058
29 | GART (UniProt C9JZG2) | inactive: 0.25 | inactive: -0.018 | inactive: 0.285 | inactive: -0.087 | inactive: 0.289 | inactive: 0.077 | inactive: -0.124 | inactive: 0.09 | inactive: 0.032 | inactive: -0.233
30 | FTL (UniProt P02792) | inactive: -0.151 | inactive: -0.094 | inactive: -0.071 | inactive: 0.093 | inactive: 0.053 | inactive: 0.07 | inactive: -0.074 | inactive: -0.02 | inactive: 0.093 | inactive: -0.079

Record cards (already shown). Values in the order: log2 fold change [1]	log2 fold change [2]	log2 fold change [3]	log2 fold change [4]	log2 fold change [5]	log2 fold change [6]	log2 fold change [7]	log2 fold change [8]	log2 fold change [9]	log2 fold change [10]
GALNT12 (UniProt Q8IXK2) in the list: inactive: -0.037	inactive: 0.03	inactive: -0.032	inactive: 0.025	inactive: -0.005	inactive: 0.011	inactive: -0.039	inactive: -0.023	inactive: -0.035	inactive: -0.104
GABARAPL2 (UniProt P60520) in the list: inactive: 0.065	inactive: 0.013	inactive: 0.021	inactive: -0.02	inactive: 0.072	inactive: 0.016	inactive: 0.077	inactive: 0.008	inactive: -0.027	inactive: -0.021

Source: the supplement of paper PMC10849652
